Experimental data published in the supplement of paper PMC10849652.
The list shows a part of the results.

Amino acid sequences for entries named in this document (tags omitted). A change or cut given only in a name is not applied to a line headed by its entry.
UniProt Q5JS54: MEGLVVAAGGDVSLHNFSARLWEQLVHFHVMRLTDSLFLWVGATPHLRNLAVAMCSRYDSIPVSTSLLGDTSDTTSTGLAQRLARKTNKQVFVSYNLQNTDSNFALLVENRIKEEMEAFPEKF
UniProt Q9H0K6: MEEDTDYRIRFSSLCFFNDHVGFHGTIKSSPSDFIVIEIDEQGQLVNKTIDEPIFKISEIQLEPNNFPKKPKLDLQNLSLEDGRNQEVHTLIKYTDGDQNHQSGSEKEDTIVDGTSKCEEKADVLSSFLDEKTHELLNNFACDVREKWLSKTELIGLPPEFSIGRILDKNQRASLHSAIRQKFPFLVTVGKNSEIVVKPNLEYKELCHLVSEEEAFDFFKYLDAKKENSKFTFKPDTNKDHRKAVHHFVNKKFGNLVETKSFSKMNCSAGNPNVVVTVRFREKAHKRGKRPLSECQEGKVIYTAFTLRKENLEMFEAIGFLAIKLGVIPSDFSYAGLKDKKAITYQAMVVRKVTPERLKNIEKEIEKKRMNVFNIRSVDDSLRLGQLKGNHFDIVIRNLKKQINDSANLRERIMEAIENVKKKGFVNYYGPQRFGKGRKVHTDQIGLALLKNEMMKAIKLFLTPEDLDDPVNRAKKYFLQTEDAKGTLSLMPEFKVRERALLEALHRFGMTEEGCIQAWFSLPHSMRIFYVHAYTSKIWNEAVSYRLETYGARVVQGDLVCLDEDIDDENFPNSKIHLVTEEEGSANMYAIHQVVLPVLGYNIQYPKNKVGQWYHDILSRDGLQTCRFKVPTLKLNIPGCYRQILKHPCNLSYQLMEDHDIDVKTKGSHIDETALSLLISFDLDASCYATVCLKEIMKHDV
UniProt Q9Y617: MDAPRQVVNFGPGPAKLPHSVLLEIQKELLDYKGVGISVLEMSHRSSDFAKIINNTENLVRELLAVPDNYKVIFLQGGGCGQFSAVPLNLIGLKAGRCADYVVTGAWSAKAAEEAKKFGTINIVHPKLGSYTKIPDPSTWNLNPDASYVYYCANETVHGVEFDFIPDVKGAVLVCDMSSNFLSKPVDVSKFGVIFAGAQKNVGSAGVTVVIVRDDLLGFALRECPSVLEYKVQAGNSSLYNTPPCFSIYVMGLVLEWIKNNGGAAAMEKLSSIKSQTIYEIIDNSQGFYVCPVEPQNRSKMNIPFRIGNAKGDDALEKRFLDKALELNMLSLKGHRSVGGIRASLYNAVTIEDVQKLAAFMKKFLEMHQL
UniProt Q969U7: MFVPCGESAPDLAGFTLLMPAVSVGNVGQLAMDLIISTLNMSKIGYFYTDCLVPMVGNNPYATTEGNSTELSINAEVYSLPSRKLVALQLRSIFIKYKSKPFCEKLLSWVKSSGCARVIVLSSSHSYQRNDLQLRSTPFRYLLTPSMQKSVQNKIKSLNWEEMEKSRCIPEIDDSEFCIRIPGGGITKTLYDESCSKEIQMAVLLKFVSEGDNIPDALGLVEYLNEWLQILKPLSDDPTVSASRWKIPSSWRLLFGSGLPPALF
UniProt P20742, whole entry, looked up: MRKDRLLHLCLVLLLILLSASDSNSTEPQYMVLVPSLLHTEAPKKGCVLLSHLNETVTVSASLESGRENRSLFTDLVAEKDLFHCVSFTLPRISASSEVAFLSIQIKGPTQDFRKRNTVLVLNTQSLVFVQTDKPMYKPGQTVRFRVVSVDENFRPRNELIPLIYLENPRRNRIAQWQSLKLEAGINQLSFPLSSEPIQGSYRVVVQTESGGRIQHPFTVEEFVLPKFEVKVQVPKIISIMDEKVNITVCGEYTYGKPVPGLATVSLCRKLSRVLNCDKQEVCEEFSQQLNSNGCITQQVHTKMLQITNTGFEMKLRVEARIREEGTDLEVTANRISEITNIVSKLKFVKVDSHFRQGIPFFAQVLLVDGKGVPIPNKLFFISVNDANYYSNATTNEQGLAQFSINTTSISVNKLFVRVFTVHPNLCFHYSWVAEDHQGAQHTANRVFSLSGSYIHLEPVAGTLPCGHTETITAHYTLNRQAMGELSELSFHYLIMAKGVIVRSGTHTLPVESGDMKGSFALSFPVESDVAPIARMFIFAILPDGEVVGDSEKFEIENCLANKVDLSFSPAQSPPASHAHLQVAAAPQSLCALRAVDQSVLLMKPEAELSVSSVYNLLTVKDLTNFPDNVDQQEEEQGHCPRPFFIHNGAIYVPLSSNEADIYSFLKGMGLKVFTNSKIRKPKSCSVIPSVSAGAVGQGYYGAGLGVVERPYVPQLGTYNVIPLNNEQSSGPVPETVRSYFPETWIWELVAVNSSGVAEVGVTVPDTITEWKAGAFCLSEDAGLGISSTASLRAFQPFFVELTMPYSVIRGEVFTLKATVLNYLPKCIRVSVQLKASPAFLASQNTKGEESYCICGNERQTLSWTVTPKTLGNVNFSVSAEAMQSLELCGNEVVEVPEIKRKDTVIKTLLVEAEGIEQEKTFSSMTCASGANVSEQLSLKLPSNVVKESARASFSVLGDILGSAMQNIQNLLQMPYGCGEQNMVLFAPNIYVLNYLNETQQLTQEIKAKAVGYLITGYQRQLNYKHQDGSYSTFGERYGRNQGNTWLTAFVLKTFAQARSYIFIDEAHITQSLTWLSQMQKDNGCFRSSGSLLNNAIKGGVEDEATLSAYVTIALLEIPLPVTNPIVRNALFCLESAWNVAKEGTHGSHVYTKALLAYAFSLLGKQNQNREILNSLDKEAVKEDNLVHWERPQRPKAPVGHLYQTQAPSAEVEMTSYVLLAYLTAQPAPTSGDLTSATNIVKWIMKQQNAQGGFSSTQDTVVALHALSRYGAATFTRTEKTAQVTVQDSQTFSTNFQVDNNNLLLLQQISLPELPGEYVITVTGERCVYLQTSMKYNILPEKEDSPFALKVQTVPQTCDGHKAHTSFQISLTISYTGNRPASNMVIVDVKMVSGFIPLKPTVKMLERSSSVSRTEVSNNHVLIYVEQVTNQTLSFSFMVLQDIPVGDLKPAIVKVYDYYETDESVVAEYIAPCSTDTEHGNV
UniProt P28066: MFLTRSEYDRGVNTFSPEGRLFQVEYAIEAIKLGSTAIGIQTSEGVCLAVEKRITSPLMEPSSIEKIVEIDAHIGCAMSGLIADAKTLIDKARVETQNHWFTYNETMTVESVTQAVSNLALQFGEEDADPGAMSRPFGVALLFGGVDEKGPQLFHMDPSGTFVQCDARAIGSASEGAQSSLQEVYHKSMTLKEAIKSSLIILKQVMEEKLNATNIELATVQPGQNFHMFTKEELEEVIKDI
UniProt O75832: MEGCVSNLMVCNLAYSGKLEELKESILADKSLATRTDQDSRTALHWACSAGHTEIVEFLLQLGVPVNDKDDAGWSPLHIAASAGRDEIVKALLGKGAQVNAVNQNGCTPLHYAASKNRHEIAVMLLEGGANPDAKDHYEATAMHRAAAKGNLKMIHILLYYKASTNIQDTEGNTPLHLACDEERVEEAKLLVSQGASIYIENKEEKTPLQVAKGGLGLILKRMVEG
UniProt Q96PZ0: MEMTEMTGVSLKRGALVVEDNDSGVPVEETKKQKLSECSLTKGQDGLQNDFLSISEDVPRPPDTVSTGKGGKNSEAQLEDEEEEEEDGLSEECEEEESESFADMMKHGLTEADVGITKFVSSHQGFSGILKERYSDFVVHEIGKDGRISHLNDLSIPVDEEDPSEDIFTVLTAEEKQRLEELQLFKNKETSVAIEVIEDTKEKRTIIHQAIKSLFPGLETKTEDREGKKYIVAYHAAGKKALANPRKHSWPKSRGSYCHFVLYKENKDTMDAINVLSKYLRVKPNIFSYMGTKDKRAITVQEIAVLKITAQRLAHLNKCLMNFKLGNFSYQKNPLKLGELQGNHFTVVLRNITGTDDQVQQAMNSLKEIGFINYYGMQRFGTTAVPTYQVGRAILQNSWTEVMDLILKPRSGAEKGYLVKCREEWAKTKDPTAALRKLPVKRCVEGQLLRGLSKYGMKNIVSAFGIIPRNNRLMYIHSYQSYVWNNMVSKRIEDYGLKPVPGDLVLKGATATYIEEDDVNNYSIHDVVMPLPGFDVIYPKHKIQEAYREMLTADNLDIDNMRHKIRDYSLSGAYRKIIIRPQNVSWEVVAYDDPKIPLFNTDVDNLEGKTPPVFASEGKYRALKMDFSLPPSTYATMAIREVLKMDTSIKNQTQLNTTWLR
UniProt P18433: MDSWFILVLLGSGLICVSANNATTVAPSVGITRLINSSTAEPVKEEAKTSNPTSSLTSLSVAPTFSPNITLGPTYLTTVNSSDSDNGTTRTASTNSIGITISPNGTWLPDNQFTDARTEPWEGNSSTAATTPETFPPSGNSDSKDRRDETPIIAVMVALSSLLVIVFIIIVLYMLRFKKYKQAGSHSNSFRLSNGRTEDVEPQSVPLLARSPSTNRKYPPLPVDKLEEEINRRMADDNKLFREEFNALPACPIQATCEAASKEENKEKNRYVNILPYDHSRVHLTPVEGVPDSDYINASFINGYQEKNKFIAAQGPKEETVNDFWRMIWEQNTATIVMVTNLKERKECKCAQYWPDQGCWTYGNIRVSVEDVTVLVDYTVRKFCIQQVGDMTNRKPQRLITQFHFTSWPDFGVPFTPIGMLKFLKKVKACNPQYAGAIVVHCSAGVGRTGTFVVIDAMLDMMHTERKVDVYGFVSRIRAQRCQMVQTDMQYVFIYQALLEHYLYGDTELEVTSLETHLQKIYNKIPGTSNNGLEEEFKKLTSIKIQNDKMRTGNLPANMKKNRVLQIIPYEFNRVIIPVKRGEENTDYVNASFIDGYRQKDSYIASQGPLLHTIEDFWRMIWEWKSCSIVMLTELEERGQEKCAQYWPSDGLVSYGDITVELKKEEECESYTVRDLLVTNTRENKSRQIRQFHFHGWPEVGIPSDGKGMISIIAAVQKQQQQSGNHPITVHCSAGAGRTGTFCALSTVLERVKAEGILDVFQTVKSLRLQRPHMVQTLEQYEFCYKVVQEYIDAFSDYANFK
UniProt O14818: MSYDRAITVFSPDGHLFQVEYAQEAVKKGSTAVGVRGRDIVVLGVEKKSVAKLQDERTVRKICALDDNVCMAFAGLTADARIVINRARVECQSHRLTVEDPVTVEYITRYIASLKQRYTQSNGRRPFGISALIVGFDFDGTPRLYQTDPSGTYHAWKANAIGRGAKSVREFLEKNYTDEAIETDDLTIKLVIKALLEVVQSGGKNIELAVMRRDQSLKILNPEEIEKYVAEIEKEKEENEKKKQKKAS
UniProt Q08623: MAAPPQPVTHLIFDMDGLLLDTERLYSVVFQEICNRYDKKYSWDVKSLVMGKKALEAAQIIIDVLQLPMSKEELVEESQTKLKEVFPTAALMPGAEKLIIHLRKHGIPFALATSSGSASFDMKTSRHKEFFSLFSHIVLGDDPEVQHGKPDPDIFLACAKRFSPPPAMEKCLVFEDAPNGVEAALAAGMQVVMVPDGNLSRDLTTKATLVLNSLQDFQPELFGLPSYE
UniProt Q9BRP8: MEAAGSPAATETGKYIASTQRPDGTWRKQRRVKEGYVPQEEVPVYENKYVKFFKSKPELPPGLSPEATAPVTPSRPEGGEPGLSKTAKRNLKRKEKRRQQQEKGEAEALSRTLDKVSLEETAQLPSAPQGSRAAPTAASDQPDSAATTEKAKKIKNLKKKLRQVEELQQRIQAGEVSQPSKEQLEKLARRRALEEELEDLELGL
UniProt Q9NR77: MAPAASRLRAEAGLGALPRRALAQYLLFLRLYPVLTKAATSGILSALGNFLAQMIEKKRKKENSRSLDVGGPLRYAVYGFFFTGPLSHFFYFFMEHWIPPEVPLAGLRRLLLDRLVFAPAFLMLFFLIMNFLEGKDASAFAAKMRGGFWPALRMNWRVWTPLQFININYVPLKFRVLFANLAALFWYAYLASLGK
UniProt P78330: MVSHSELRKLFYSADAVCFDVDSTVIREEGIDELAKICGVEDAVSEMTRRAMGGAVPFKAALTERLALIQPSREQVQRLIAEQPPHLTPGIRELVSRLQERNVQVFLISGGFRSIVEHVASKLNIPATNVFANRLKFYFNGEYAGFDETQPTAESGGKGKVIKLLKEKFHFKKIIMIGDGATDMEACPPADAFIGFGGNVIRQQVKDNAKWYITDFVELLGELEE
UniProt Q96BW5: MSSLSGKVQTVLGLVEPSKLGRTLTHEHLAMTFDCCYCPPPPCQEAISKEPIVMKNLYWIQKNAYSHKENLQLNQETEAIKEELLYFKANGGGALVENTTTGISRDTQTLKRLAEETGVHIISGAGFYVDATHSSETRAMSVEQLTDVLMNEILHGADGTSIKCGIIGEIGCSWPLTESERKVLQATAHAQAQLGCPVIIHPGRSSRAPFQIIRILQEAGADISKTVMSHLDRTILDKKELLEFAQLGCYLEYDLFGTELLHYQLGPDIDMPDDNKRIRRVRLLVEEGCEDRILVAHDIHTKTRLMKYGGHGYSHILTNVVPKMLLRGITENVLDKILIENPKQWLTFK
UniProt Q9NRG1: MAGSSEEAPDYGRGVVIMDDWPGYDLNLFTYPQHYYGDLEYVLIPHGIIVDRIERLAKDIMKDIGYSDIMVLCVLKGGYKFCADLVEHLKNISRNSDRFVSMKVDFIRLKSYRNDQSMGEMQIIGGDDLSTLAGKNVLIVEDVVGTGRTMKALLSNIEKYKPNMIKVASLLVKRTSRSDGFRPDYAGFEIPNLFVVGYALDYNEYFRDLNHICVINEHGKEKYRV

Assays:
Assay in all cases: log2 fold change, soluble protein after heating vs DMSO (PISA); higher = thermal stabilisation; K562 cells, 10 uM, 30 min; active = over 0.2 and 3.5 SD of the protein, either way, in both replicates (recomputed)
[1] = compound: CS(=O)(=O)c1ccc(-c2cnc(N)c(C(=O)Nc3ccccc3)n2)cc1
Outline: (§1)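 K562 cells at 2×10^6 cells/mL were given 10 μM compound for 30 min. Aliquots then went through 3 min of heating across 48°C-58°C, were pooled, and were extracted in PBS with 0.5% NP-40 at 4°C, and the supernatant after 21,000xg for 90 min was quantified by TMTpro 16plex LC-MS/MS with channel sums equalised. Thermal stability relative to control samples, from duplicates, is given as log2 fold change.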

crizotinib = compound: C[C@@H](Oc1cc(-c2cnn(C3CCNCC3)c2)cnc1N)c1c(Cl)ccc(F)c1Cl [crizotinib]
Outline: as §1

[2] = compound: C[C@@H]1COCCN1C2=NC(=NC(=C2)C3(CC3)S(=O)(=O)C)C4=C5C=CNC5=CC=C4
Outline: as §1

[3] = compound: C[C@H](C1=CC=C(C=C1)C(=O)NC2=C3C=CNC3=NC=C2)N
Outline: as §1

duvelisib = compound: C[C@H](Nc1ncnc2nc[nH]c12)c1cc2cccc(Cl)c2c(=O)n1-c1ccccc1 [duvelisib]
Outline: as §1

gandotinib = compound: Cc1cc(Nc2cc(CN3CCOCC3)c3nc(C)c(Cc4ccc(Cl)cc4F)n3n2)n[nH]1 [gandotinib]
Outline: as §1

tozasertib = compound: Cc1cc(Nc2cc(N3CCN(C)CC3)nc(Sc3ccc(NC(=O)C4CC4)cc3)n2)n[nH]1 [tozasertib]
Outline: as §1

[4] = compound: Cc1cc(SCc2sc(-c3ccc(C(F)(F)F)cc3)nc2C)ccc1OCC(=O)O
Outline: as §1

doramapimod = compound: Cc1ccc(-n2nc(C(C)(C)C)cc2NC(=O)Nc2ccc(OCCN3CCOCC3)c3ccccc23)cc1 [doramapimod]
Outline: as §1

ispinesib = compound: Cc1ccc(C(=O)N(CCCN)[C@@H](c2nc3cc(Cl)ccc3c(=O)n2Cc2ccccc2)C(C)C)cc1 [ispinesib]
Outline: as §1

Measured: log2 fold change

PSMD14 (UniProt O00487)
inactive: [1] 0.037 | crizotinib -0.026 | [2] 0.041 | [3] 0.102 | duvelisib -0.068 | gandotinib -0.009 | tozasertib 0.034 | [4] 0.024 | doramapimod 0.076 | ispinesib -0.016

PRXL2B isoform 3 (UniProt Q8TBF2)
inactive: [1] -0.05 | crizotinib 0.063 | [2] 0.07 | [3] 0.077 | duvelisib 0.047 | gandotinib -0.006 | tozasertib -0.016 | [4] -0.011 | doramapimod -0.019 | ispinesib 0.074

PSMG4 isoform 2 (UniProt Q5JS54)
inactive: [1] -0.107 | crizotinib 0.142 | [2] -0.018 | [3] -0.107 | duvelisib 0.045 | gandotinib 0.072 | tozasertib -0.014 | [4] -0.012 | doramapimod 0.016 | ispinesib 0.129

PYCR2 (UniProt Q96C36)
inactive: [1] -0.013 | crizotinib 0.02 | [2] 0.057 | [3] -0.039 | duvelisib 0.007 | gandotinib 0.007 | tozasertib -0.026 | [4] -0.015 | doramapimod 0.002 | ispinesib 0.048

PSME1 (UniProt Q06323)
inactive: [1] -0.007 | crizotinib -0.016 | [2] 0.103 | [3] -0.085 | duvelisib 0.029 | gandotinib -0.016 | tozasertib 0.03 | [4] 0.004 | doramapimod 0.007 | ispinesib 0.018

PUS7L (UniProt Q9H0K6)
inactive: [1] -0.006 | crizotinib 0.028 | [2] 0.065 | [3] 0.004 | duvelisib -0.031 | gandotinib -0.002 | tozasertib 0.012 | [4] -0.014 | doramapimod 0.006 | ispinesib -0.032

PSAT1 (UniProt Q9Y617)
inactive: [1] -0.011 | crizotinib 0.035 | [2] -0.026 | [3] -0.056 | duvelisib 0.005 | gandotinib 0.011 | tozasertib -0.004 | [4] -0.031 | doramapimod -0.044 | ispinesib 0.066

PSMG2 (UniProt Q969U7)
inactive: [1] -0.007 | crizotinib 0.042 | [2] 0.07 | [3] -0.082 | duvelisib 0.028 | gandotinib -0.031 | tozasertib 0.002 | [4] -0.02 | doramapimod -0.034 | ispinesib -0.008

PZP (UniProt P20742)
inactive: [1] -0.07 | crizotinib 0.087 | [2] -0.069 | [3] 0.163 | duvelisib -0.18 | gandotinib 0.178 | tozasertib -0.057 | [4] -0.065 | doramapimod 0.145 | ispinesib -0.039

PSMB2 (UniProt P49721)
inactive: [1] 0.013 | crizotinib 0.138 | [2] 0.02 | [3] -0.007 | duvelisib -0.021 | gandotinib 0.024 | tozasertib 0.031 | [4] -0.006 | doramapimod 0.015 | ispinesib 0.121

PSMA5 (UniProt P28066)
inactive: [1] 0.006 | crizotinib 0.008 | [2] -0.059 | [3] 0.059 | duvelisib -0.001 | gandotinib 0.034 | tozasertib 0.005 | [4] 0.004 | doramapimod 0.018 | ispinesib 0.018

Two records drawn at random from those above, as already listed:
PSAT1 (UniProt Q9Y617)
inactive: [1] -0.011 | crizotinib 0.035 | [2] -0.026 | [3] -0.056 | duvelisib 0.005 | gandotinib 0.011 | tozasertib -0.004 | [4] -0.031 | doramapimod -0.044 | ispinesib 0.066

PSME1 (UniProt Q06323)
inactive: [1] -0.007 | crizotinib -0.016 | [2] 0.103 | [3] -0.085 | duvelisib 0.029 | gandotinib -0.016 | tozasertib 0.03 | [4] 0.004 | doramapimod 0.007 | ispinesib 0.018

Additional records:

PSMD10 (UniProt O75832)
inactive: [1] 0.034 | crizotinib 0.025 | [2] 0.101 | [3] 0.026 | duvelisib 0.038 | gandotinib 0.013 | tozasertib 0.128 | [4] 0.099 | doramapimod -0.076 | ispinesib 0.026

PUS7 isoform 2 (UniProt Q96PZ0)
inactive: [1] -0.031 | crizotinib 0.016 | [2] -0.032 | [3] 0.028 | duvelisib 0.017 | gandotinib -0.01 | tozasertib -0.009 | [4] 0.011 | doramapimod 0.03 | ispinesib -0.012

PTPRA (UniProt P18433)
inactive: [1] 0.013 | crizotinib 0.07 | [2] 0.059 | [3] -0.087 | duvelisib 0.068 | gandotinib -0.031 | tozasertib -0.026 | [4] 0.028 | doramapimod -0.002 | ispinesib 0.098

PTGS1 isoform 6 (UniProt P23219)
inactive: [1] 0.005 | crizotinib 0.016 | [2] -0.005 | [3] -0.127 | duvelisib 0.067 | gandotinib -0.022 | tozasertib -0.023 | [4] -0.039 | doramapimod 0.035 | ispinesib 0.012

PTPN1 (UniProt P18031)
inactive: [1] 0.012 | crizotinib -0.091 | [2] -0.033 | [3] 0.232 | duvelisib -0.03 | gandotinib -0.042 | tozasertib 0.052 | [4] 0.145 | doramapimod 0.108 | ispinesib -0.086

PSMA2 (UniProt P25787)
inactive: [1] -0.03 | crizotinib 0.096 | [2] -0.009 | [3] 0.01 | duvelisib -0.051 | gandotinib 0.048 | tozasertib 0.023 | [4] -0.006 | doramapimod -0.003 | ispinesib 0.069

PSMA7 (UniProt O14818)
inactive: [1] 0.024 | crizotinib 0.049 | [2] -0.005 | [3] -0.021 | duvelisib -0.026 | gandotinib 0.066 | tozasertib 0.014 | [4] -0.018 | doramapimod 0.004 | ispinesib -0.014

PSMG3 (UniProt Q9BT73)
inactive: [1] -0.004 | crizotinib 0.059 | [2] 0.069 | [3] -0.088 | duvelisib 0.073 | gandotinib -0.003 | tozasertib -0.063 | [4] 0.033 | doramapimod -0.027 | ispinesib 0.085

PUDP isoform 4 (UniProt Q08623)
inactive: [1] 0.055 | crizotinib 0.057 | [2] 0.137 | [3] -0.183 | duvelisib 0.07 | gandotinib 0.068 | tozasertib -0.028 | [4] 0.027 | doramapimod -0.043 | ispinesib 0.134

QTRT2 isoform 4 (UniProt Q9H974)
inactive: [1] 0.043 | crizotinib -0.011 | [2] 0.045 | [3] 0.003 | duvelisib 0.058 | gandotinib 0.035 | tozasertib -0.043 | [4] -0.014 | doramapimod 0.01 | ispinesib 0.043

PTCD3 (UniProt Q96EY7)
inactive: [1] -0.033 | crizotinib -0.012 | [2] -0.006 | [3] 0.169 | duvelisib -0.032 | gandotinib -0.034 | tozasertib 0.019 | [4] 0.072 | doramapimod -0.013 | ispinesib -0.228

PTBP1 (UniProt P26599)
inactive: [1] -0.013 | crizotinib 0.068 | [2] -0.031 | [3] -0.056 | duvelisib 0.038 | gandotinib 0.018 | tozasertib 0.042 | [4] 0.086 | doramapimod -0.135 | ispinesib 0.011

PYM1 (UniProt Q9BRP8)
inactive: [1] -0.054 | crizotinib 0.017 | [2] -0.195 | [3] 0.193 | duvelisib -0.034 | gandotinib 0.172 | tozasertib 0.018 | [4] 0.021 | doramapimod 0.037 | ispinesib -0.078

PSME2 (UniProt Q9UL46)
inactive: [1] 0.019 | crizotinib -0.027 | [2] 0.076 | [3] -0.127 | duvelisib 0.031 | gandotinib -0.205 | tozasertib -0.023 | [4] 0.025 | doramapimod -0.016 | ispinesib 0.025

PXMP2 (UniProt Q9NR77)
inactive: [1] -0.007 | crizotinib 0.066 | [2] 0.078 | [3] -0.078 | duvelisib 0.052 | gandotinib 0.02 | tozasertib -0.041 | [4] -0.024 | doramapimod -0.014 | ispinesib 0.031

PSPH (UniProt P78330)
inactive: [1] 0.022 | crizotinib 0.054 | [2] 0.096 | [3] -0.003 | duvelisib 0.054 | gandotinib 0.013 | tozasertib -0.035 | [4] 0 | doramapimod -0.037 | ispinesib 0.053

PTER (UniProt Q96BW5)
inactive: [1] 0.002 | crizotinib 0.023 | [2] 0.05 | [3] -0.078 | duvelisib 0.036 | gandotinib 0.029 | tozasertib -0.055 | [4] -0.018 | doramapimod 0.003 | ispinesib 0.031

PRTFDC1 (UniProt Q9NRG1)
inactive: [1] -0.005 | crizotinib 0.018 | [2] -0.005 | [3] -0.093 | duvelisib -0.007 | gandotinib 0.014 | tozasertib -0.039 | [4] -0.007 | doramapimod -0.096 | ispinesib 0.011
